Source: the supplement of paper PMC11348887
Counter-ions that a name gives are not always drawn. The list shows a part of the results. Most entries show no effect beyond the scatter of the controls.

The molecules below were run on hPSC-derived cortical neurons (WA09) (assay: nucleus area z-score vs screen plate; higher = larger nuclei (more mature)). Conditions: 5 µM; treatment: days 7-14 after plating, readout day 21.
In the case of `CNC[C@H](O)c1cccc(O)c1` [Phenylephrine HCl], the nucleus area z-score is reported as 0.676.
`Cc1c(C(=O)NN2CCCCC2)nn(-c2ccc(Cl)cc2Cl)c1-c1ccc(I)cc1` showed a nucleus area z-score of 1.82.
Work on `Cc1cnc(NC(=O)Nc2cc(Br)c(C)cc2OC[C@@H]2CNCCO2)cn1` yielded a nucleus area z-score of 0.838.
In the case of `CN(C)CCN1C(=O)c2cccc3cc(N)cc(c23)C1=O` [Amonafide], the nucleus area z-score is reported as -0.239.
`Cc1oncc1C(=O)Nc1ccc(C(F)(F)F)cc1` [Leflunomide] was tested, and the nucleus area z-score was 1.5.
Molecule `O=C(NNc1ccccc1)c1ccncc1` has a nucleus area z-score of 0.167.
Work on `CN1CCC(COc2cnc(-c3cccc(Cn4nc(-c5cccc(C#N)c5)ccc4=O)c3)nc2)CC1` yielded a nucleus area z-score of -0.845.
For `O=C(Nc1cccc(C(F)(F)F)c1)Nc1cc(S(=O)(=O)NC2CC2)ccc1-c1ccsc1`, the nucleus area z-score was 1.09.
`O=C(O)CCCCCCCC(=O)O` [Azelaic acid] was tested, and the nucleus area z-score was -0.425.
`CN1CCN(C(=O)/C=C/c2ccc([N+](=O)[O-])o2)CC1` gave a nucleus area z-score of -1.33.
`Cc1ccc(C(=O)N(CCCN)[C@@H](c2nc3cc(Cl)ccc3c(=O)n2Cc2ccccc2)C(C)C)cc1` gave a nucleus area z-score of -9.92.
`Nc1ccc(C(=O)NCC(=O)O)cc1` [4-Aminohippuric Acid] was tested, and the nucleus area z-score was 0.408.
`CC(=O)NC[C@H]1CN(c2ccc(N3CCOCC3)c(F)c2)C(=O)O1` [Linezolid] was tested, and the nucleus area z-score was -0.136.
`Cc1nn(C)c(COc2ccc(N3CCN(S(=O)(=O)N(C)C)CC3)cc2)c1-c1cccc2c(CCCOc3cccc4ccccc34)c(C(=O)O)n(CCN3CCOCC3)c12` gave a nucleus area z-score of 1.05.
With `O=C1CN(/N=C/c2ccc([N+](=O)[O-])o2)C(=O)N1` [Nitrofurantoin] the nucleus area z-score was 1.14.
For `Nc1nc2[nH]cc(CCc3ccc(C(=O)N[C@@H](CCC(=O)O)C(=O)O)cc3)c2c(=O)[nH]1` [Pemetrexed], the nucleus area z-score was 0.484.
Work on `C[C@@H]1COC(Nc2ccc3ncnc(Nc4ccc(OCc5nccs5)c(Cl)c4)c3c2)=N1` [Varlitinib] yielded a nucleus area z-score of 0.287.
`COc1ccc(/C=C\c2cc(OC)c(OC)c(OC)c2)cc1O` [Combretastatin A4] showed a nucleus area z-score of -11.8.
`CN(C)c1ccc(C(=C2C=CC(=[N+](C)C)C=C2)c2ccc(N(C)C)cc2)cc1` [Crystal Violet] showed a nucleus area z-score of -11.
`COc1cc2nc(N3CCN(C(=O)c4ccco4)CC3)nc(N)c2cc1OC` [Prazosin HCl] was tested, and the nucleus area z-score was 1.39.
For `CC(=O)OCC[N+](C)(C)C` [Acetylcholine Chloride], the nucleus area z-score was 0.249.
Work on `CN[C@@H]1[C@@H](O)[C@@H](O[C@@H]2[C@@H](O)[C@H](O[C@H]3OC(CN)=CC[C@H]3N)[C@@H](N)C[C@H]2N)OC[C@]1(C)O` [Sisomicin sulfate] yielded a nucleus area z-score of 2.91.
`CCCCOC(=O)c1ccc(N)cc1` [Butamben] gave a nucleus area z-score of 0.101.
`CN(C)CCc1c[nH]c2ccc(CS(=O)(=O)N3CCCC3)cc12` [Almotriptan Malate] showed a nucleus area z-score of -1.02.
`Cc1ccc(Nc2c(F)cccc2Cl)c(CC(=O)O)c1` [Lumiracoxib] gave a nucleus area z-score of 1.65.
For `Nc1ccc(C(=O)O)cc1` [4-Aminobenzoic acid], the nucleus area z-score was 0.904.
Molecule `C[C@]12CCC(=O)C=C1CC[C@@H]1[C@@H]2[C@@H](O)C[C@@]2(C)[C@H]1CC[C@]2(O)C(=O)CO` [Hydrocortisone] has a nucleus area z-score of -0.0443.
`CC(C)c1cc(-c2ccc(F)c3ccccc23)nc(N)n1` showed a nucleus area z-score of 0.365.
With `CCN(CC)CCOC(=O)C1(C2CCCCC2)CCCCC1` [Dicyclomine HCl] the nucleus area z-score was 1.75.
`C#CCN[C@@H]1CCc2ccccc21` [Rasagiline Mesylate] showed a nucleus area z-score of 0.257.
Molecule `CCCCc1nc2cc(/C=C/C(=O)NO)ccc2n1CCN(CC)CC` [Pracinostat (SB939)] has a nucleus area z-score of -8.12.
Work on `C1N2CN3CN1CN(C2)C3` [Methenamine] yielded a nucleus area z-score of 0.394.
`COc1cc2ncnc(Sc3nnc(C)s3)c2cc1OC` was tested, and the nucleus area z-score was 0.698.
Work on `NC(=O)c1ccc(N(C(N)=O)c2c(F)cccc2F)nc1-c1ccc(F)cc1F` yielded a nucleus area z-score of 0.588.
With `CNC[C@H](O)c1ccc(O)c(O)c1` [Epinephrine HCl] the nucleus area z-score was 0.786.
For `O=C(NCCO[N+](=O)[O-])c1cccnc1` [Nicorandil], the nucleus area z-score was 0.0955.
`CCOc1ccc2ccccc2c1C(=O)N[C@@H]1C(=O)N2[C@@H]1SC(C)(C)[C@@H]2C(=O)O` [Nafcillin Sodium] was tested, and the nucleus area z-score was -0.0457.
With `COc1ccccc1N1CCN(CCN(C(=O)C2CCCCC2)c2ccccn2)CC1` the nucleus area z-score was 0.0323.
Work on `C[C@]12CC[C@@H]3c4ccc(O)cc4CC[C@H]3[C@@H]1CC[C@@H]2O` [Estradiol] yielded a nucleus area z-score of -0.0818.
`COc1cc2c(c(OC)c1OC)-c1c(cc3c(c1OC)OCO3)CC(C)C(C)C2` (stereo not given) [Schisandrin B (Sch B)] was tested, and the nucleus area z-score was -0.545.
